Assay results: paper PMC11206880, “The RNA Helicase Ded1 from Yeast Is Associated with the Signal Recognition Particle and Is Regulated by SRP21” (Molecules, 2024)

Test system: Ded1 + SRP21
Test: EMSA (agarose)
Conditions: SRP21 has little effect on Ded1 binding, higher-MW complexes retained in wells; EMSA: 20 mM Tris-base pH 8.8, 70 mM KOAc, 2 mM MgCl2, 10 ug/uL BSA, 1 mM DTT, with or without 5 mM AMP-PNP or ATP, 0.15 uM RNA, 15 min at 30 C; 1% agarose, 1x TBE, 4 C; recombinant protein; probe letters rebuilt from the primers and the genome; part of a longer molecule

“UGUAAUGGCUUUCUGGUGGGAUGGGAUACGUUGAGAAUUCUGGCCGAGGAACAAAUCCUUCCUCGCGGCUAGACACGGAUUGCACGCCCUUUGGGCAAGGGAUAGUUCUCUAUUCCGCACCGUGCCCUGUUGUGGCAACCGUCUUUCCUCCGUCGUAAAUUUGUCCUGGGCAGAGCUGUCUGCCCGGAGGCGGGAGAGUCCGUUCUGAAGUGUCCCGGCUAUAAUAAAUCGAUCUUUGCGGGCAGCCCGUUGGCAGGAGGCGUGAGGAAUCCGUCUCUCUGUCUGGUGCGGCAAGGUAGUUCUGGGUCCUUAGGGGCUCCACCUUCACCGCUGUUAGGGGAGUUUUAUCCAGCGUCAGCAAAGGUGACCCGUGAUGGAGGCGGCCGGGAUAGCACAUAUCAGUCGGAUAAUUGUGCAAGUUGAUCGCUUCGGCGGUUUAAUUUGGCGGUGCCAUCAGGAUUUACUCGCACAUUGUGGCCGUUCCCUCGGGGAUGGAGUGUGUCCUGAACCAUAUUUUU [SCR1 RNA (T7 transcript, 522 nt)]”: binds.

Construct, isoform or probe ends are uncertain for at least one entry.
